Results on 35 sequences are retold here after publication PMC7862700.

The entries are a selection whose mix differs from that of the whole data set. At the low end of the ranking the order means little.

The target of this assay is T1, ETS2 (UniProt P15036).
T1 sequence: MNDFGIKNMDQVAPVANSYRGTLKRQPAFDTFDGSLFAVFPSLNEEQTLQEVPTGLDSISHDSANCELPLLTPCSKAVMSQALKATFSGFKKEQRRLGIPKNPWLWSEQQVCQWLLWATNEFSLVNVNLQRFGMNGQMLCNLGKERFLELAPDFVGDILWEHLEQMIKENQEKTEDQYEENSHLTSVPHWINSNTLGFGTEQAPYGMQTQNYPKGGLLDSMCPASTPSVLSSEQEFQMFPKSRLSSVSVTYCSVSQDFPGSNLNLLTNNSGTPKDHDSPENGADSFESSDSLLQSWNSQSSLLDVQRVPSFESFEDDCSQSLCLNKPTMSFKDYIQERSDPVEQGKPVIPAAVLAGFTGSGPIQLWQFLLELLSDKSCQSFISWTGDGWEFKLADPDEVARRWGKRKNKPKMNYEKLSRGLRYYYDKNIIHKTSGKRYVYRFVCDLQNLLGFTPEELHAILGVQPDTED
Nature of the assay: DAPPL (digital affinity profiling via proximity ligation, sequencing). As to conditions: 10 mM Tris-HCl pH 7.5, 50 mM NaCl, 1 mM DTT, 4% glycerol, room temperature, 30 min; GST-TFs on glutathione beads, 16-mer random dsDNA library, 0.1% …; high values mean tight binding; double strand, one strand shown; scale: fold enrichment (6-mer frequency, TF over GST control).
With AAGAGT, the binding signal stood at 0.951.
Consider GAGGCT, for which the binding signal was determined as 0.576.
For the sequence GAGGAT, the binding signal was determined as 0.595.
As for AGTCCG, the figure is 0.568; as for GACGTA, 0.739.
As for AACAGT, the figure is 0.643; as for CGGGAT, 0.63.
For GGCATC, the binding signal is 0.855.
As for GGAGCT, the figure is 0.547.
As for GCACGG, the figure is 0.852; as for CACGTG, 0.643.
As for GTGGAC, the figure is 0.959; as for GAGCCG, 0.394.
GGATGA: the binding signal came out at 1.1.
As for GCCGTT, the figure is 0.754; as for TTGGAC, 0.988; as for GAGTTT, 0.655.
With GGTGAT, the binding signal is 0.788.
In turn, GGGATA gave a binding signal of 0.773.
In turn, GTCGCT yielded a binding signal of 0.779.
ATCGGA yielded a binding signal of 0.432.
As for CGGACG, the figure is 0.454; as for AGAGAC, 0.525.
GGTCGG: the binding signal is 0.283.
In turn, AGTTGA had a binding signal of 0.765.
As for AGGGGT, the figure is 0.813; as for CCAGAC, 0.676.
As for GCGCGA, the figure is 0.695; as for AGGACT, 0.879; as for ACTGAG, 0.723.
As for GGGGTT, the figure is 0.846; as for GATGTG, 0.994.
In the case of CAACGG, the binding signal amounted to 0.898.
As for TGTCGT, the figure is 0.812; as for CGGAAT, 0.97.
